Experimental data taken from PubChem BioAssay AID485298 (National Center for Advancing Translational Sciences (NCATS), 2010).
The whole screen tested about 320,000 compounds, of which about 740 (0.23%) were called active. The inconclusive results got no clear call from the source; some entries with a clear call stand among them for comparison. Calls follow the shape of the dose curve; as a rule, active = well fitted activation curve with a large enough effect; inconclusive = small, poorly fitted or top-dose-only effect; inactive = no such curve, though single readings can be large or run the other way. Potencies beside an inconclusive call are fits to weak or partial responses and may not hold up.

Assay: qHTS Assay for Small Molecule Inhibitors of Mitochondrial Division or Activators of Mitochondrial Fusion; also: nearly all actives have a fitted effect of over 45% in size;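 as to growth rescue (activation): temperature-sensitive fusion mutants such as fzo1-1 at 37 °C on non-fermentable ethanol glycerol medium; % of control where 0% means no effect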
Conditions: S. cerevisiae fusion-defective mutant growth rescue, CellTiterGlo 48 h; growth rescue (activation): at 46.1 µM (top of the series) unless noted
How it was run: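 Growth-rescue viability read-out: after 48 h at the non-permissive 37C in glycerol/ethanol YPEG, yeast mitochondrial fusion mutants are measured by CellTiterGlo luminescence; compounds (23 nl pinned per well) restoring growth score as division inhibitors or fusion activators.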
Potency is read from the fitted curve at half-maximal effect.

Q: With `c1ccc2c(c1)OCCOCCOc1ccccc1OCCOCCO2` as the molecule, how does the Potency read?
A: inconclusive: 31.6 µM [activator, single point]

Q: Which “growth rescue (activation)” value does the source give for `CC(C)COc1ccc(N)cc1OCC(C)C` here?
A: inactive: 5.41%

Q: For `O=S(=O)(NCCC1=CCCCC1)c1ccccc1Br`, which Potency is on record?
A: inconclusive: 35.5 µM [activator, single point]

Q: Which Potency does the source give for `Cc1[nH]c2ccccc2c1C(=O)COc1ccccc1F` here?
A: inconclusive: 15.8 µM [activator, single point]

Q: Which Potency does the source give for `Cc1ccc(NC(=O)CN(C)C(=O)/C=C/c2cccc(F)c2)cc1` here?
A: inconclusive: 35.5 µM [activator, single point]

Q: Which Potency does the source give for `Cc1cccc(NC(=S)N(Cc2ccco2)C(C)c2cccs2)c1` (stereo not given) here?
A: inconclusive: 31.6 µM [activator, single point]

Q: For `CC(=O)C(=Nc1ccccc1Cl)NNc1ccc(Cl)cc1`, which Potency is on record?
A: inconclusive: 35.5 µM [activator, partial curve]

Q: For `CC1(C)N([O-])C(c2ccccc2)=C[N+](=O)C1(C)C`, which “growth rescue (activation)” value is on record?
A: inactive: 3.35%

Q: For `S=C(Nc1ccc(Br)cc1)NC1CCCCC1`, which Potency is on record?
A: inconclusive: 28.2 µM [activator, single point]

Q: For `CC(C)c1ccc(NC(=O)c2snc3ccc(Cl)cc23)cc1`, which Potency is on record?
A: inconclusive: 11.2 µM [activator, partial curve]

Q: Which Potency does the source give for `CC(c1ccccc1)n1c(-c2cccs2)nc2c(c(=O)c3ccccc3n2C)c1=O` (stereo not given) here?
A: active: 22.4 µM

Q: For `CCn1nc([N+](=O)[O-])c(C(C#N)c2nc3cc(C(F)(F)F)ccc3s2)c(Cl)c1=O` (stereo not given), which Potency is on record?
A: inconclusive: 12.6 µM [activator, partial curve]

Q: For `Cc1ccc(C(C)(C)C)cc1S(=O)(=O)N1CCC(C(=O)N2CCN(c3ccc(O)cc3)CC2)CC1`, which Potency is on record?
A: inconclusive: 10 µM [activator, partial curve]

Q: For `Cc1cccc(CN2CCC(C(=O)Nc3cccc(-c4cscn4)c3)CC2)n1`, which “growth rescue (activation)” value is on record?
A: inactive: -8.98%

Q: With `CN(c1ccccc1)S(=O)(=O)c1ccc(Cl)c(C(=O)Nc2ccccc2N2CCOCC2)c1` as the molecule, how does the Potency read?
A: inconclusive: 17.8 µM [activator, single point]

Q: For `COC(=O)c1ccc(C2SCC(=O)N2Cc2ccccc2)cc1` (stereo not given), which “growth rescue (activation)” value is on record?
A: inactive: 20.8%

Q: Which Potency does the source give for `O=C1c2cccc(OCC(=O)N3CCCc4ccccc43)c2CCN1Cc1ccc(F)cc1` here?
A: inconclusive: 22.4 µM [activator, single point]

Q: For `Cc1cccc(N2CCN(S(=O)(=O)c3ccc4c(c3)CCCN4C(=O)C3CCC3)CC2C)c1` (stereo not given), which Potency is on record?
A: inconclusive: 14.1 µM [activator, partial curve]

Q: Which “growth rescue (activation)” value does the source give for `Cc1ccc2c(c1)COc1c3ccc(C(=O)NCCO)cc3nn1-2` here?
A: inactive: 18.1%

Q: Which Potency does the source give for `O=C(NCCc1ccccc1)C1CCCN(c2cnccn2)C1` (stereo not given) here?
A: inconclusive: 35.5 µM [activator, single point]

Q: Which “growth rescue (activation)” value does the source give for `CCCCn1c(=O)[nH]c(=O)c2c1nc(Cn1ncc(Cl)c(Cl)c1=O)n2CCC` here?
A: inactive: -21.4%

Q: For `Cc1ccc(-n2[nH]c(C)c(/C=N/NC(=O)c3ccc(O)cc3O)c2=O)cc1`, which Potency is on record?
A: inconclusive: 3.55 µM [activator, single point]

Q: For `O=C1Cc2c([nH]c3ccc(Br)cc23)-c2ccccc2N1`, which Potency is on record?
A: active: 7.31 µM

Q: For `CCNC(=O)C(=O)N/N=C/c1cc([N+](=O)[O-])ccc1O`, which Potency is on record?
A: active: 22.4 µM

Q: Which “growth rescue (activation)” value does the source give for `CC(C)(C)OC(=O)N/N=C\c1ccc(OC(=O)c2ccco2)cc1` here?
A: inactive: -3.09%

Q: Which Potency does the source give for `CCOc1ccc2c(c1)-c1c(ssc1=S)C(C)(C)N2C(=O)c1ccco1` here?
A: inconclusive: 10 µM [activator, partial curve]

Q: With `CNCCCC12CCC(c3ccccc31)c1ccccc12` as the molecule, how does the Potency read?
A: inconclusive: 35.5 µM [activator, single point]

Q: With `CC(=O)c1cccc(NC(=S)NC(=O)c2ccccc2Br)c1` as the molecule, how does the Potency read?
A: inconclusive: 17.8 µM [activator, single point]

Q: For `COc1ccc([C@H]2CC(=O)C=C(c3cccc(Cl)c3)C2)cc1OC`, which Potency is on record?
A: inconclusive: 11.2 µM [activator, single point]

Q: With `COc1ccc([C@H]2CC(=O)C=C(c3ccc(Cl)c(F)c3)C2)cc1` as the molecule, how does the Potency read?
A: inconclusive: 22.4 µM [activator, single point]

Q: Which Potency does the source give for `Cc1cc(NC(=O)Nc2cccc(Cl)c2)n(-c2ccccn2)n1` here?
A: inconclusive: 35.5 µM [activator, single point]

Q: Which “growth rescue (activation)” value does the source give for `Cn1c(O)c(N=NC(=O)c2ccccc2O)c2ccccc21` here?
A: inactive: 18.8%

Q: With `O=C(Oc1ccc2ccc(O)cc2c1)C1CCCCC1` as the molecule, how does the “growth rescue (activation)” value read?
A: inactive: 8.79%

Q: With `Cc1ccc(CC(=O)N2CCN(c3ccc([N+](=O)[O-])cc3)CC2)cc1` as the molecule, how does the “growth rescue (activation)” value read?
A: inactive: -1.43%

Q: For `Clc1ccc(Nc2ccc(NCc3ccccc3)nn2)cc1`, which Potency is on record?
A: inconclusive: 15.8 µM [activator, single point]

Q: With `CC1CCCN(CCOCCOc2ccc(Cl)cc2Br)C1` (stereo not given) as the molecule, how does the “growth rescue (activation)” value read?
A: inactive: 9.87%

Q: With `COc1cc(OC)cc(C(=O)Nc2cccc(NC(=O)c3ccccc3)c2)c1` as the molecule, how does the “growth rescue (activation)” value read?
A: inactive: -13.2%

Q: With `O=C(COC(=O)C12CC3CC(CC(C3)C1)C2)Nc1ccc(OC(F)F)cc1` as the molecule, how does the “growth rescue (activation)” value read?
A: inactive: 12%

Q: For `[O-]/C(=C(\C(=S)Nc1ccccc1F)[n+]1ccccc1)c1ccc(-c2ccccc2)cc1`, which Potency is on record?
A: inconclusive: 15.8 µM [activator, partial curve]

Q: Which Potency does the source give for `COc1cc2c(cc1OC)CN(C(=O)Cc1c(F)cccc1Cl)CC2` here?
A: inconclusive: 17.8 µM [activator, partial curve]

Q: For `O=C(Cc1ccc(Cl)cc1)Nc1ccc(N2CCN(C(=O)c3ccco3)CC2)c(Cl)c1`, which Potency is on record?
A: inconclusive: 10 µM [activator, partial curve]

Q: With `CSCc1cc(N2CCCC2)nc(-c2ccccc2)n1` as the molecule, how does the Potency read?
A: inconclusive: 31.6 µM [activator, single point]

Q: Which Potency does the source give for `CSc1ncccc1C(=O)OCC(=O)N(C)C` here?
A: inconclusive: 20 µM [activator, single point]

Q: For `COc1ccccc1NC(=O)N(Cc1ccco1)Cc1cc2cc(C)cc(C)c2[nH]c1=O`, which Potency is on record?
A: inconclusive: 22.4 µM [activator, single point]

Q: With `Cc1ccc2c(CN3CC(C)CC(C)C3)cc(=O)oc2c1` (stereo not given) as the molecule, how does the “growth rescue (activation)” value read?
A: inactive: -1.15%

Q: With `O=S(=O)(Nn1cnnc1)c1ccc2ccccc2c1` as the molecule, how does the Potency read?
A: inconclusive: 2.82 µM [activator, full curve]

Q: For `O=C(Nc1ccccc1F)c1cc(S(=O)(=O)N2CCOCC2)ccc1N1CCOCC1`, which “growth rescue (activation)” value is on record?
A: inactive: 4.86%

Q: Which Potency does the source give for `Cc1cc(NC(=O)COC(=O)c2ccccc2[N+](=O)[O-])no1` here?
A: inconclusive: 5.62 µM [activator, single point]

Q: For `O=C(Nc1c(F)cc(F)cc1Br)c1cc(-c2ccc(O)cc2)on1`, which Potency is on record?
A: inconclusive: 20 µM [activator, partial curve]

Q: For `O=C(O)c1cccc(NN=C2c3ccccc3-c3ccccc32)c1`, which Potency is on record?
A: inconclusive: 22.4 µM [activator, single point]

Q: For `N#Cc1nc(COc2ccccc2Cl)oc1N1CCCC1`, which Potency is on record?
A: inconclusive: 12.6 µM [activator, partial curve]

Q: Which Potency does the source give for `COc1ccc(NC(=O)c2sc3nc(N4CCCC4)c4c(c3c2N)CC(C)(C)OC4)cc1` here?
A: active: 12.6 µM

Q: For `CCOc1cccc(-c2nc3c(s2)CCc2onc(-c4cccc([N+](=O)[O-])c4)c2-3)c1`, which “growth rescue (activation)” value is on record?
A: inactive: -4.31%

Q: With `O=C(Nc1nc2ccccc2s1)C1c2ccccc2Oc2ccccc21` as the molecule, how does the Potency read?
A: inconclusive: 5.62 µM [activator, single point]

Q: Which Potency does the source give for `CCCCCC(=O)O[C@]1(C(C)=O)CC[C@H]2[C@@H]3CCC4=CC(=O)CC[C@]4(C)[C@H]3CC[C@@]21C` here?
A: inconclusive: 14.1 µM [activator, partial curve]

Q: With `Cc1cccc(Nc2nc(N)c([N+](=O)[O-])c(NCc3ccco3)n2)c1` as the molecule, how does the Potency read?
A: inconclusive: 11.2 µM [activator, partial curve]

Q: With `CC(C)OC(=O)c1c(-c2ccc(C(C)C)cc2)csc1NC(=O)C1CCCO1` (stereo not given) as the molecule, how does the “growth rescue (activation)” value read?
A: inactive: -6.06%

Q: For `CN(CC(=O)Nc1cc(S(=O)(=O)N2CCCC2)ccc1Cl)Cc1cccs1`, which Potency is on record?
A: inconclusive: 10 µM [activator, partial curve]

Q: With `Nc1cccc(Oc2c(F)c(F)c(Oc3cccc(N)c3)c(F)c2F)c1` as the molecule, how does the Potency read?
A: inconclusive: 3.55 µM [activator, partial curve]

Q: For `O=c1[nH]ncc(N2CCCC2)c1Cl`, which Potency is on record?
A: inconclusive: 31.6 µM [activator, single point]

Q: With `COc1ccccc1CCNC(=O)c1cc(C2CC2)nc2c1cnn2C(C)C` as the molecule, how does the Potency read?
A: inconclusive: 35.5 µM [activator, single point]

Q: With `O=C(CSc1ccc2nnc(-c3ccc(F)cc3)n2n1)N1CCCc2ccccc21` as the molecule, how does the Potency read?
A: inconclusive: 14.1 µM [activator, single point]

Q: With `CC(C)Cc1ccc(/C=C/C(=O)NC2CC2)cc1` as the molecule, how does the Potency read?
A: inconclusive: 35.5 µM [activator, single point]

Q: For `COC(=O)C1CSC(C(=O)OC)N1C(=O)CN1CCN(c2ccc(OC)cc2)CC1` (stereo not given), which Potency is on record?
A: inconclusive: 35.5 µM [activator, single point]

Q: Which “growth rescue (activation)” value does the source give for `CCN(CC)c1ccc(NC(=O)Cn2cc3c(n2)CCC(C)C3)c(C)c1` (stereo not given) here?
A: inactive: 7.14%

Q: With `Cc1ccccc1N1CCN(C(=O)c2cc(C3CC3)nn2-c2ccccc2)CC1` as the molecule, how does the Potency read?
A: inconclusive: 22.4 µM [activator, single point]

Q: With `Cc1ccccc1CNC(=O)CCCn1ncn2c(cc3occc32)c1=O` as the molecule, how does the Potency read?
A: inconclusive: 35.5 µM [activator, partial curve, poor fit]

Q: For `CCC(C)(C)NC(=O)C(c1ccccc1F)N(Cc1ccco1)C(=O)Cn1nnc2ccccc21` (stereo not given), which Potency is on record?
A: active: 10 µM

Q: Which Potency does the source give for `COc1ccc2cc(C#N)c(N3CCN(C(=O)c4ccccc4C)CC3)nc2c1` here?
A: inconclusive: 35.5 µM [activator, single point]

Q: With `COc1cccc(C(=O)Nc2sc3c(c2C(=O)O)CCCC3)c1` as the molecule, how does the Potency read?
A: inconclusive: 4.47 µM [activator, full curve]
